{"source": "patent US20120157401A1", "about": "“METHODS FOR TREATING NEUROFIBROMATOSIS” (PTC Therapeutics, Inc., priority 2009, published 2012)", "key": {"[1]": {"system": "HT1080 tumor cells in vivo", "assay": "HT1080 xenograft studies of Compound 1205, Compound #10 and Compound 1330: tumor growth", "parameters": "species or system athymic nude mice", "settings": "study #24a, 10 mg/kg QD", "text": "Experimental Design. HT1080 cells (5×10^6 cells/mouse) were implanted subcutaneously in male athymic nude mice. […] For comparison, Compound #10 was included in this study."}, "[2]": {"system": "HT1080 cells", "assay": "Cell cycle analysis by propidium iodide flow cytometry in HT1080 cells (percent cells in S-phase, Table 24)", "assay_type": "cell-based, human", "settings": "HT1080, normoxic, 18 hours; Compound #10 0.3-100 nM, Compound 1205 10 nM", "description": "Experimental Design. […] After treatment, cells were trypsinized, and stained with propidium iodide (PI) dye to measure DNA content of individual cells by flow cytometry. Output comprised histograms showing relative DNA content in 10,000 cells.\nWhile compounds which cause greater than 20% of the cells to accumulate in S-phase at 100 nM are considered active, a larger percentage of cells may be accumulated in S-phase at lower doses depending on the Compound, as shown in FIG. 12 for example."}, "[3]": {"system": "soluble VEGF121 and VEGF165 isoforms", "assay": "ELISA of soluble VEGF121/165 production in HeLa cells during hypoxia or normoxia", "assay_type": "cell-based, human", "settings": "hypoxia-induced, 48 hours", "description": "Experimental Design. HeLa (human cervical carcinoma) cell cultures were established under normoxic conditions (21% oxygen). HeLa cells increase VEGF production 4- to 5-fold in response to hypoxia. […] At the completion of treatment, the conditioned media were collected and the VEGF protein levels were assayed in an enzyme-linked immunosorbent assay (ELISA) with primary antibodies that recognize the soluble VEGF121 and VEGF165 isoforms (R & D Systems, Minneapolis, Minn., USA). To ensure that decreases in VEGF concentration were not due to cytotoxicity, cultures were assayed using a standard assay ([…]-GLO® Luminescent Cell Viability Assay; Promega, Madison, Wis., USA) that measures total cellular adenosine triphosphate (ATP) concentrations as an indicator of cell viability."}, "[4]": {"system": "human tumor cell lines", "assay": "Cell cycle delay in several VEGF secreting human tumor cell lines (Table 25)", "assay_type": "cell-based", "settings": "10 nM or 100 nM"}}, "note": "For some assays here: At least one read-out could not be matched to a standard name with certainty. For some assays here: At least one structure is not confirmed: it was looked up by name or label, or the drawing left a doubt."}
{"molecule": "O=C(Oc1ccc(Cl)cc1)N1CCc2c([nH]c3ccc(Cl)cc23)[C@H]1c1ccc(OCC[C@H](O)CO)cc1", "note": "[Compound 1330]", "values": [{"measurement": "Growth of HT1080 tumor cells in vivo (FIG. 26)", "setting": "[1]", "value": "overlapped with the growth of tumors in mice treated with 0.5% HPMC vehicle"}]}
{"molecule": "O=C(Oc1ccc(Cl)cc1)N1CCc2c([nH]c3ccc(Cl)cc23)[C@@H]1c1ccc(OCC[C@H](O)CO)cc1", "note": "[Compound 1205]", "values": [{"measurement": "Effect on cell cycle distribution (FIG. 12, FIG. 24)", "setting": "[2]", "value": "induced a redistribution of the cycling characteristics"}, {"measurement": "Growth of HT1080 tumor cells in vivo (FIG. 26)", "setting": "[1]", "value": "significantly delayed growth"}, {"measurement": "Inhibition of stress-induced VEGF production (FIG. 25)", "setting": "[3]", "value": "inhibit stress-induced VEGF production"}]}
{"molecule": "COc1ccc(C2c3[nH]c4ccc(Cl)cc4c3CCN2C(=O)Oc2ccc(Cl)cc2)cc1", "note": "(racemic) [Compound #10]", "values": [{"measurement": "Cell Cycle Delay at VEGF Inhibition EC50", "setting": "[4]; ASPC-1 (Pancreas), 18 hours", "value": "No"}, {"measurement": "Cell Cycle Delay at VEGF Inhibition EC50", "setting": "[4]; HCT116 (Colorectal), 18 hours", "value": "Yes"}, {"measurement": "Cell Cycle Delay at VEGF Inhibition EC50", "setting": "[4]; HEK293 (Renal cell), 18 hours", "value": "Yes"}, {"measurement": "Cell Cycle Delay at VEGF Inhibition EC50", "setting": "[4]; HPAF-2, 18 hours", "value": "No"}, {"measurement": "Cell Cycle Delay at VEGF Inhibition EC50", "setting": "[4]; HT1080 (Fibrosarcoma), 18 hours", "value": "Yes"}, {"measurement": "Cell Cycle Delay at VEGF Inhibition EC50", "setting": "[4]; HeLa (Cervical), 18 hours", "value": "Yes"}, {"measurement": "Cell Cycle Delay at VEGF Inhibition EC50", "setting": "[4]; NCI H460 (Lung), 18 hours", "value": "Yes"}, {"measurement": "Cell Cycle Delay at VEGF Inhibition EC50", "setting": "[4]; PC-3, 18 hours", "value": "No"}, {"measurement": "Cell Cycle Delay at VEGF Inhibition EC50", "setting": "[4]; PL-45, 18 hours", "value": "No"}, {"measurement": "Cell Cycle Delay at VEGF Inhibition EC50", "setting": "[4]; U-87MG (Glioblastoma), 18 hours", "value": "No"}]}
